Data as given in PubChem BioAssay AID1508597 (Cure First, 2020)

- Purpose: 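Genes whose silencing sensitises or protects ovarian cancer cells against rucaparib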 (primary screen)
- Cell system: human ovarian carcinoma lines grown from tumours: OCI-P5x (papillary serous) and OCI-C5x (clear cell)
- Reagents: siRNA pool against human genes, 1.25 pmol siRNA per well
- Time to read-out: 72 h or 96 h, depending on the cell culture
- Challenge: rucaparib 20 µM (about IC30) or vehicle, present until read-out
- Rucaparib or vehicle: Vehicle
- Cell line: OCI-C5x (clear cell)
- Measurement: 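Luminescent ATP-based viability assay read 72 or 96 h after transfection, depending on culture, given as normalised percent viability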
- Scale: viability, normalised: higher = more viable cells remaining
- Hit rule: 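Active when normalised viability falls below 80 percent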
- Meaning of the calls: active = viability under 80%; inactive = viability 80% or more
Shown is a random part of the about 2,100 reagents, under one of the conditions tested. 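Calls flag viability under 80% in either arm, not effects specific to rucaparib; the reference for percent is not stated.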 A reagent listed more than once was tested more than once; the source does not tell the runs apart. Reagent sequences are not shown. Not given: the 100% reference.

target	technical replicate	viability, normalised (%)	Outcome
SOX2	1	35.9	active
SOX2	1	52.4	active
SOX2	2	38.8	active
SOX2	2	43.6	active
SOX2	3	50.9	active
SOX2	3	51.5	active
HIRIP3	1	59.2	active
HIRIP3	2	67.8	active
HIRIP3	3	58.4	active
MLLT1	1	63.2	active
MLLT1	2	59.7	active
MLLT1	3	55.7	active
EHMT1	1	57.3	active
EHMT1	2	62.3	active
EHMT1	3	88.4	inactive
TAOK1	1	39.4	active
TAOK1	2	56	active
TAOK1	3	43.6	active
IKZF1	1	71.1	active
IKZF1	2	33	active
IKZF1	3	70.9	active
MPP3	1	54.7	active
MPP3	2	38.2	active
MPP3	3	36.7	active
PTGR1	1	52	active
PTGR1	2	46	active
PTGR1	3	49.5	active
CDT1	1	34.7	active
CDT1	2	49.5	active
CDT1	3	46.5	active
STK32C	1	44.8	active
STK32C	2	49.8	active
STK32C	3	58.6	active
HNF1A	1	34.3	active
HNF1A	2	40.2	active
HNF1A	3	41	active

Laid out differently: entries from further up
{"target":"SOX2","technical replicate":"3","viability, normalised (%)":51.5,"Outcome":"active"}
{"target":"HIRIP3","technical replicate":"1","viability, normalised (%)":59.2,"Outcome":"active"}
{"target":"HIRIP3","technical replicate":"2","viability, normalised (%)":67.8,"Outcome":"active"}
{"target":"HIRIP3","technical replicate":"3","viability, normalised (%)":58.4,"Outcome":"active"}
{"target":"MLLT1","technical replicate":"1","viability, normalised (%)":63.2,"Outcome":"active"}
{"target":"MLLT1","technical replicate":"2","viability, normalised (%)":59.7,"Outcome":"active"}
{"target":"MLLT1","technical replicate":"3","viability, normalised (%)":55.7,"Outcome":"active"}
{"target":"EHMT1","technical replicate":"1","viability, normalised (%)":57.3,"Outcome":"active"}

Additional records:
target	technical replicate	viability, normalised (%)	Outcome
GLYR1	1	48.4	active
GLYR1	2	70.6	active
GLYR1	3	54	active
TTBK1	1	40.9	active
TTBK1	2	57.2	active
TTBK1	3	51.8	active
GMEB2	1	58.4	active
GMEB2	2	63.4	active
GMEB2	3	68.9	active
TNNI3K	1	57	active
TNNI3K	2	60.7	active
TNNI3K	3	44.8	active
EVI5L	1	74.5	active
EVI5L	2	51.4	active
EVI5L	3	63	active
ABCG2	1	68.9	active
ABCG2	2	65.7	active
ABCG2	3	74.1	active
MYPOP	1	39.9	active
MYPOP	2	25.5	active
MYPOP	3	27.5	active
